Data published in PubChem BioAssay AID1439 (NMMLSC, 2008).
The campaign covered roughly 220,000 compounds. About 770 (0.35%) were called active. The inconclusive results got no clear call from the source; some entries with a clear call stand among them for comparison. Cut-off read from the data, not from the text of the source: active = binding response below about 49% or above about 150%; inconclusive = no clear call, values can overlap the other calls; inactive = in between.

Chains of the proteins cited; added tags and fusions are not shown.
UniProt P09471, whole entry, looked up: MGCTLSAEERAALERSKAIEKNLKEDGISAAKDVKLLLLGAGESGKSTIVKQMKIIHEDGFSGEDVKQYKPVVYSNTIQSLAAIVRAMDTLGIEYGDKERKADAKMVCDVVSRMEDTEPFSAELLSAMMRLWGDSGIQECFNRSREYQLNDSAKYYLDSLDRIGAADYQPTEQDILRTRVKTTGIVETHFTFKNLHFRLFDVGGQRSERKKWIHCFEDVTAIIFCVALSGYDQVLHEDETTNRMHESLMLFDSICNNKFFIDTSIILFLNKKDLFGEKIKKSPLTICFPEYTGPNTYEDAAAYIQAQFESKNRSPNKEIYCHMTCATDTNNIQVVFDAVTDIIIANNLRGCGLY

The compounds below were run against Guanine nucleotide-binding protein G(o) subunit alpha (Homo sapiens) (UniProt P09471) (assay: RGS7-Galphao binding modulators, primary screen, biochemical, multiplexed bead flow cytometry (AID 1439;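 note: fluorescent Galphao held in activated GDP-AlF4 state binding bead-coupled RGS7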)). Settings: at 10 µM, actives lie on both sides.
In the case of `CCS(=O)(=O)N1CCC(C(=O)NCc2ccc(OC)cc2)CC1`, the binding response (% of control) is reported as inactive: 107%.
In the case of `Cn1c(-c2sccc2OCc2ccc(Cl)cc2Cl)n[nH]c1=S`, the binding response (% of control) is reported as inconclusive: 74.3%.
For `CN(Cc1ccc(OCC(O)CN(C)Cc2ccccc2)cc1)Cc1nccn1C` (stereo not given), the binding response (% of control) was inconclusive: 81.5%.
In the case of `COc1cccc(NC2c3ccccc3C(=O)N2Cc2ccccc2Cl)c1` (stereo not given), the binding response (% of control) is reported as inconclusive: 202%.
With `COCCCNC(=O)CCCn1c(=O)c2ccccc2n(Cc2cccc([N+](=O)[O-])c2)c1=O` the binding response (% of control) was inactive: 100%.
With `CN(C)c1ccc(C2CC(c3ccccc3)=Nc3nc(-c4ccccc4)cn32)cc1` (stereo not given) the binding response (% of control) was inactive: 99.1%.
For `CCOc1ccc(N(CC(=O)Nc2cc(C)ccc2C)S(=O)(=O)c2c(C)[nH]c(=O)[nH]c2=O)cc1`, the binding response (% of control) was inconclusive: 112%.
`COc1ccc(CCN=Cc2ccccc2O)cc1OC` was tested, and the binding response (% of control) was inconclusive: 129%.
For `N#CCSc1ncnc2c1cnn2CCO`, the binding response (% of control) was inactive: 101%.
For `COc1ccc(N2CCN(Cc3oc(CO)cc(=O)c3O)CC2)cc1`, the binding response (% of control) was inactive: 86%.
With `Cc1c(NC(=O)c2ccc(Br)s2)c(=O)n(-c2ccccc2)n1C` the binding response (% of control) was inconclusive: 117%.
With `COc1ccc2c(c1OC)C(=O)N(c1ccc(C)cc1)C2` the binding response (% of control) was inconclusive: 106%.
For `COc1cc(O)c(C(CCN2CCCC2)c2ccc3c(c2)OCO3)c(OC)c1` (stereo not given), the binding response (% of control) was inconclusive: 66.2%.
In the case of `CCN(C(=O)C1CCCN1S(=O)(=O)c1cccc2nsnc12)c1ccccc1` (stereo not given), the binding response (% of control) is reported as inconclusive: 91.7%.
For `CCCCOc1ccc(Cc2cnc(N)nc2N)cc1`, the binding response (% of control) was inconclusive: 98.1%.
`Cc1nn(CC(=O)N/N=C/c2ccc(F)cc2)c(C)c1[N+](=O)[O-]` was tested, and the binding response (% of control) was inconclusive: 70.3%.
In the case of `C/C(=N/NC(=O)c1ccn(C)n1)c1ccncc1`, the binding response (% of control) is reported as inconclusive: 72.4%.
`N#Cc1ccc(Cl)cc1NC(=O)CSc1nc2nc(-c3cccs3)cc(C(F)(F)F)c2c(=O)[nH]1` was tested, and the binding response (% of control) was inconclusive: 192%.
`Cc1ccc(S(=O)(=O)N(C)C)cc1NC(=O)c1n[nH]c(=O)c2ccccc12` was tested, and the binding response (% of control) was inconclusive: 145%.
With `CS/C(N)=N/N=C/c1ccc2c(c1)OCO2` the binding response (% of control) was inconclusive: 135%.
With `O=C(CSc1nnc(Cc2ccccc2)o1)N1CCCc2ccccc21` the binding response (% of control) was inactive: 98%.
For `C=CCn1c(=O)c(C#N)cc2c(=O)n3ccccc3nc21`, the binding response (% of control) was inactive: 83.5%.
In the case of `COc1ccc(OC)c(C(=O)c2c(C)oc3cc([N+](=O)[O-])c(O)c([N+](=O)[O-])c23)c1`, the binding response (% of control) is reported as inconclusive: 87.6%.
In the case of `O=C(c1cccc(F)c1)N1CCC(N2CCCCCC2)CC1`, the binding response (% of control) is reported as inactive: 105%.
`CCCNC(=O)Nc1cccc(NC(C)=O)c1` was tested, and the binding response (% of control) was inconclusive: 125%.
`COCCN1CCN(Cc2cn(C)nc2-c2ccc(Oc3ccccc3)cc2)CC1` was tested, and the binding response (% of control) was inconclusive: 84.5%.
With `Cc1cccc(C(=O)NNC2=CC(=O)CC(C)(C)C2)c1O` the binding response (% of control) was inconclusive: 101%.
With `O=S(=O)(c1ccccc1)N1CCN=C1SCc1cccc(Cl)c1` the binding response (% of control) was inactive: 101%.
`O=C(CSc1nnnn1C1CCCC1)NCCc1ccccc1` was tested, and the binding response (% of control) was inconclusive: 106%.
With `CCC(C)[C@H](NC(=O)NCCCOC(C)C)C(=O)OC` (stereo not given in full) the binding response (% of control) was inconclusive: 197%.
With `COC(=O)N1CCN(CCc2ccccc2)CC1` the binding response (% of control) was inconclusive: 117%.
In the case of `O=c1c2ccccc2cnn1Cc1n[nH]c(=S)n1-c1ccccc1F`, the binding response (% of control) is reported as inconclusive: 125%.
In the case of `Nc1nnc(CC(=O)Nc2ccccc2)s1`, the binding response (% of control) is reported as inconclusive: 97.1%.
With `Cc1ccc(C(C(=O)NC(C)(C)C)N(Cc2ccccc2)C(=O)c2snc(C(N)=O)c2N)o1` (stereo not given) the binding response (% of control) was active: 161% [activator].
With `CC[C@H](C)[C@H](NC(N)=O)C(=O)Nc1ccc(NC(C)=O)cc1` the binding response (% of control) was inconclusive: 118%.
`O=C(O)c1nc2nc(Cl)c(Cl)nc2[nH]1` was tested, and the binding response (% of control) was inconclusive: 115%.
For `O=C1/C(=C/c2cccc(O)c2)SC(=S)N1CC1CCCO1` (stereo not given), the binding response (% of control) was inconclusive: 114%.
With `Cc1ccc(C)c(N2CN(Cc3cccnc3)CNC2=S)c1` the binding response (% of control) was inactive: 98%.
`C/C=N/N(c1ccccc1)c1ccccc1` was tested, and the binding response (% of control) was inconclusive: 102%.
With `C=CCCN(C(CC(C)C)C(=O)OC)S(=O)(=O)c1ccccc1Br` (stereo not given) the binding response (% of control) was inconclusive: 101%.
In the case of `CN1CCN(c2nc3ccccn3c(=O)c2/C=C(\C#N)S(=O)(=O)c2ccccc2)CC1`, the binding response (% of control) is reported as inconclusive: 103%.
With `COC(OC)c1ccc(C#N)c(=O)[nH]1` the binding response (% of control) was inconclusive: 106%.
In the case of `O=C(N/N=C1/CC2C=CCC12)c1ccco1` (stereo not given), the binding response (% of control) is reported as inactive: 104%.
In the case of `CCOC(=O)CC1C(=O)NC2CCCCC2N1C(=O)Nc1ccc(Cl)cc1` (stereo not given), the binding response (% of control) is reported as inactive: 98.7%.
In the case of `O=C(CSc1nnc(-c2cccc(S(=O)(=O)N3CCCC3)c2)n1-c1ccccc1)Nc1cccc(C(=O)O)c1`, the binding response (% of control) is reported as inconclusive: 104%.
With `O=C(NCC(c1cccs1)N1CCOCC1)c1ccc(Cl)c(S(=O)(=O)N2CCOCC2)c1` (stereo not given) the binding response (% of control) was inconclusive: 65.1%.
With `O=C1N/C(=N/N=C/c2ccco2)SC1Cc1ccccc1` (stereo not given) the binding response (% of control) was inconclusive: 100%.
`O=C1CCN(Cc2ccccc2)S(=O)(=O)c2ccccc21` was tested, and the binding response (% of control) was inconclusive: 124%.
`COc1ccc(CCN2C(=O)CC(N3CCN(C/C=C/c4ccccc4)CC3)C2=O)cc1OC` (stereo not given) was tested, and the binding response (% of control) was inconclusive: 53.1%.
In the case of `O=C(CCc1nc(-c2ccccc2Cl)no1)NCc1ccco1`, the binding response (% of control) is reported as inconclusive: 88%.
With `CC(C)OC(=O)Nc1ccc(-c2ccc(NC(=O)OC(C)C)cc2Cl)c(Cl)c1` the binding response (% of control) was inconclusive: 115%.
In the case of `COc1cccc(CN(C)C(=O)c2cc(COc3ccc4ncccc4c3)on2)c1`, the binding response (% of control) is reported as inactive: 120%.
For `Cc1cc(C(=O)NNC(=O)c2nn(C)c(=O)c3ccccc23)c(C)o1`, the binding response (% of control) was inconclusive: 102%.
`Nc1cc(S(=O)(=O)N2CCCCC2)ccc1Oc1ccc(Cl)cc1` was tested, and the binding response (% of control) was inconclusive: 105%.
`NS(=O)(=O)c1ccc(NC(=S)NC(=O)c2ccc3c(c2)OCO3)cc1` was tested, and the binding response (% of control) was inconclusive: 86.3%.
For `O=C(NN1CCOCC1)c1cccc(COc2cccc(Br)c2)c1`, the binding response (% of control) was inconclusive: 103%.
For `COc1ccccc1/C=C/C=NC1C(=O)N(c2ccccc2)[N+](C)=C1C` (stereo not given), the binding response (% of control) was inconclusive: 113%.
`CCOc1cc(-c2nc(C)c(C(C)=O)n2O)ccc1OCC(=O)Nc1cccc(C)c1` was tested, and the binding response (% of control) was inactive: 106%.
With `CC(C)(C)NC(=O)CN1CCN(C(=O)CCl)CC1` the binding response (% of control) was inactive: 85.2%.
For `CCOC(=O)C1CCN(C(=S)NC2CC3C=CC2C3)CC1` (stereo not given), the binding response (% of control) was inconclusive: 98.9%.
In the case of `Cc1cc(NC(=O)CSc2nncn2N)no1`, the binding response (% of control) is reported as inactive: 102%.
For `O=C(Nc1cc(=O)[nH]c2nc(-c3ccccc3)nn12)c1ccc(Cl)cc1`, the binding response (% of control) was inconclusive: 102%.
In the case of `CC(C)CCNC(=O)CN(Cc1cccs1)C(=O)CCC(=O)Nc1nccs1`, the binding response (% of control) is reported as inactive: 99.6%.
`COc1cc(/C=N/NC(=O)CCNC(=O)c2ccccc2Cl)ccc1O` was tested, and the binding response (% of control) was inconclusive: 96.7%.
`CN(C)S(=O)(=O)c1ccc2[nH]cc(/C=C/c3nc4ccccc4c(=O)n3-c3ccccc3)c2c1` was tested, and the binding response (% of control) was inactive: 101%.
With `CN(C)CCNC(=S)Nc1ccc(F)c(F)c1F` the binding response (% of control) was inactive: 97%.
`NNc1nc2sc3c(c2c(=O)n1Cc1ccccc1)CCC3` was tested, and the binding response (% of control) was inconclusive: 83.4%.
In the case of `NS(=O)(=O)c1ccc(CCNC(=O)CN2CCCCCC2)cc1`, the binding response (% of control) is reported as inactive: 91.6%.
With `CCOC(=O)CSc1nc2ccccc2c(=O)n1C1CCCC1` the binding response (% of control) was inactive: 132%.
In the case of `C#CCOCCOCCOCCNc1nc(N2CCN(C(=O)[C@H]([C@@H](C)CC)n3cc([C@@H](N)Cc4ccc(O)cc4)nn3)CC2)nc(N2CCN(C(=O)[C@H](CCCCN)n3cc([C@@H](N)CC(C)C)nn3)CC2)n1`, the binding response (% of control) is reported as inactive: 106%.
`CCN(CC)P(=O)(Nc1cccc(C(F)(F)F)c1)c1ccc(N(C)C)cc1NC(=O)c1ccco1` (stereo not given) was tested, and the binding response (% of control) was inconclusive: 106%.
With `Cc1ccc2c(c1)N=C(c1ccccc1)CC(C(Cl)Cl)=N2` the binding response (% of control) was inconclusive: 140%.
For `CCOC(=O)CCNC(=O)CCNC(=O)C(c1ccccc1)c1ccccc1`, the binding response (% of control) was inconclusive: 101%.
For `COC(=O)Cc1[nH]c(Cl)nc1C(N)=O`, the binding response (% of control) was inconclusive: 85.9%.
With `CCN(CC)CC(O)CCCCCCCCC(=O)OC` (stereo not given) the binding response (% of control) was inconclusive: 85%.
`Nn1c(SCC(=O)NCCCc2ccccc2)nnc1-c1cccnc1` was tested, and the binding response (% of control) was inconclusive: 91.9%.
For `COc1cccc2sc(NC(=O)c3ccc(Br)s3)nc12`, the binding response (% of control) was inactive: 86.8%.
With `NC(=O)c1ccc2c(c1)S(=O)(=O)c1ccccc1C2=O` the binding response (% of control) was inconclusive: 145%.
With `COc1ccc([C@H]2Oc3cc(O)cc(O)c3C(=O)C2[C@@H]2C(=O)c3c(O)cc(O)cc3O[C@@H]2c2ccc(OC)cc2)cc1` (stereo not given in full) the binding response (% of control) was inconclusive: 104%.
In the case of `Cc1cc(NC(=O)c2coc(=O)c(Br)c2)ccc1C(C)C`, the binding response (% of control) is reported as inconclusive: 9.54%.
For `Cc1ccccc1-c1nnn(CC(=O)Nc2cccc(S(N)(=O)=O)c2)n1`, the binding response (% of control) was inactive: 99%.
For `CCCCCCCC(=O)NC1=NC(=O)C(C)(C)S1`, the binding response (% of control) was inconclusive: 68%.
`Nc1nc(NCCOCCO)nc(NCC2CCCO2)c1[N+](=O)[O-]` (stereo not given) was tested, and the binding response (% of control) was inconclusive: -224%.
In the case of `O=c1[nH]nc(N/N=C/c2ccccc2OC(F)F)c(=O)[nH]1`, the binding response (% of control) is reported as inconclusive: 155%.
With `CCCCn1c2ccc(F)cc2c2nnc(NN)nc21` the binding response (% of control) was inactive: 103%.
`Cc1cc2nc(C(F)(F)F)cc(-c3cccs3)n2n1` was tested, and the binding response (% of control) was inconclusive: 96.1%.
`O=C1C2C(C(=O)N1/N=C/c1cc([N+](=O)[O-])c(O)cc1O)C1C=CC2C12CC2` (stereo not given) was tested, and the binding response (% of control) was inconclusive: 82.3%.
For `O=C(NCc1nc2ccccc2[nH]1)C1=C[C@H](c2coc3ccccc3c2=O)C[C@H](OCc2ccc(CO)cc2)O1`, the binding response (% of control) was inconclusive: 113%.
In the case of `CCCOc1ccc(N2C(=O)CC(N(Cc3ccco3)C(=O)CCC(=O)O)C2=O)cc1` (stereo not given), the binding response (% of control) is reported as inconclusive: 67.5%.
For `Cc1ccc(NC(=O)Nc2nnc(-c3ccccc3F)s2)cc1`, the binding response (% of control) was inconclusive: 114%.
